8 molecules from publication PMC7332293 can be followed below.

By UniProt entry, the sequences of proteins in these tests, tags left out. Where a name states a change or a piece, a line headed by the entry shows the natural chain unless it says otherwise.
UniProt Q9BY78: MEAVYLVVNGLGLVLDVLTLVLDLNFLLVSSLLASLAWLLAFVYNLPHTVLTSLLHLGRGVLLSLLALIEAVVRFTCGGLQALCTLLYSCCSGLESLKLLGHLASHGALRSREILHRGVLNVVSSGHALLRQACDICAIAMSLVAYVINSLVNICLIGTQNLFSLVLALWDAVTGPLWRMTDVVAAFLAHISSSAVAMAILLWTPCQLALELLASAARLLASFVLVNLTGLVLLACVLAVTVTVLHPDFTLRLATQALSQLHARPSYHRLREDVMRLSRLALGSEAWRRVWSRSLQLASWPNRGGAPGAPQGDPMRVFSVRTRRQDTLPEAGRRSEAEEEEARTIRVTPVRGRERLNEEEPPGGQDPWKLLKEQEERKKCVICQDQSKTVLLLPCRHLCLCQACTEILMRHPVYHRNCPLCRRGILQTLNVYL
UniProt Q9UKV5: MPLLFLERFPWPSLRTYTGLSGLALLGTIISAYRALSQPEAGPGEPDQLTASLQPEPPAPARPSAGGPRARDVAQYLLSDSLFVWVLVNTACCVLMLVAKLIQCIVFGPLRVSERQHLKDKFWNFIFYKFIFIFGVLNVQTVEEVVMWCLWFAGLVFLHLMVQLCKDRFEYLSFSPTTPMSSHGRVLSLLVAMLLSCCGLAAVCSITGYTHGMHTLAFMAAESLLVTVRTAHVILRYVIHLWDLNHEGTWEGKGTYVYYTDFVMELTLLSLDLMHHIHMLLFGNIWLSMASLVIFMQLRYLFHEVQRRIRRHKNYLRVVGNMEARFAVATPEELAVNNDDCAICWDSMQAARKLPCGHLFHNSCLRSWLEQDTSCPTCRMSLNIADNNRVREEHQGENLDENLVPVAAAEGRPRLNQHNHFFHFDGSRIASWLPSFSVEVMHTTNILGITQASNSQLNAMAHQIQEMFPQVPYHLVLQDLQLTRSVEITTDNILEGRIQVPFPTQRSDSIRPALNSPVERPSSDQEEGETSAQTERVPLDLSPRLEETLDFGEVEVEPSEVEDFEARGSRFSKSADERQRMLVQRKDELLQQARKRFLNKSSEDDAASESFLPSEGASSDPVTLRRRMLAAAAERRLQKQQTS
UniProt Q99942: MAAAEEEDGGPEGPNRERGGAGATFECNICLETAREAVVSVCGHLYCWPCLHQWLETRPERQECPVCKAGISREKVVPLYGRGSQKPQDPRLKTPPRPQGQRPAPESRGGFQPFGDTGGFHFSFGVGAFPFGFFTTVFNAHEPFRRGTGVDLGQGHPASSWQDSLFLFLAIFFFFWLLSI

These are yes or no findings as the source states them, for the method shown. Binding seen in cells or lysates may run through a third protein. Here binding means that the protein was enriched with, or labelled near, the bait; the list need not be complete. For some assays here: Sequences can lack the tags named with a protein.

What all share (assay): affinity purification with mass spectrometry; FLAG-HA-tagged E3 induced with DOX in stable Flp-In293 cells; lysates in 1% LMNG (150 mM NaCl, 50 mM Tris-HCl pH 7.4, 5 mM EDTA); anti-FLAG agarose, 2 hr; eluted with SDS; LC-MS/MS; HCIPs by BSCG and SINQ analysis
Experiment [1] concerns the target Hrd1-FH (human), Q86TM6. To be noted: remark: other sources report otherwise.
Experiment [2] concerns the target T1, FH-RNF185 (human) (UniProt Q96GF1).
T1 sequence: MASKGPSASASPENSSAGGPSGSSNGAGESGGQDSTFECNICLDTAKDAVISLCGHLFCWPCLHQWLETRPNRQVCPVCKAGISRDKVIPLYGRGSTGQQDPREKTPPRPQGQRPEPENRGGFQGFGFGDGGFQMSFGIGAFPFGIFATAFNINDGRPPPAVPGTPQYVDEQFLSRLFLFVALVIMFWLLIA

For experiment [3], the target named is T2, FLAG-HA-tagged RNF170 (human) (UniProt Q96K19).
T2 sequence: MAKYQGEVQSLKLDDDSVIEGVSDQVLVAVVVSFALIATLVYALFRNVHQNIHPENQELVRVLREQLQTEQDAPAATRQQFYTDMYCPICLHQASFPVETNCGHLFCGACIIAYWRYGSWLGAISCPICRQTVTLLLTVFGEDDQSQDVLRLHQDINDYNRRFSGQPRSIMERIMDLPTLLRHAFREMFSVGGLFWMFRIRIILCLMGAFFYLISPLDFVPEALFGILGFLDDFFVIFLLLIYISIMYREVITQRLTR

For experiment [4], the target named is FH-RNF26_(Y432A) (human) (UniProt Q9BY78).
The target of experiment [5] is FLAG-HA-tagged gp78/AMFR (human) (UniProt Q9UKV5).
Experiment [6] addresses FH-RNF26WT (human) (UniProt Q9BY78).
In experiment [7] the target is FLAG-HA-tagged RNF5 (human) (UniProt Q99942).
In experiment [8] the target is T3, FLAG-HA-tagged CGRRF1 (human) (UniProt Q99675).
T3 sequence: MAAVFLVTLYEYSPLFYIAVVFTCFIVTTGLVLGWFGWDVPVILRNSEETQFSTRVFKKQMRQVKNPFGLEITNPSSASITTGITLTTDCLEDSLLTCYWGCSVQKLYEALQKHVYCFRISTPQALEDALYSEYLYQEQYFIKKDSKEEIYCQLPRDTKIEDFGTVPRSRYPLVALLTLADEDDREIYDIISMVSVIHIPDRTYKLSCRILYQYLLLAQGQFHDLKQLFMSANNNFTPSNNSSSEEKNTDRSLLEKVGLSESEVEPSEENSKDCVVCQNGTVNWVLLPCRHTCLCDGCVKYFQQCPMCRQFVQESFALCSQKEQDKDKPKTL

B1: UBE2J1, Q9Y385 1-318 (enzyme)
chain: METRYNLKSPAVKRLMKEAAELKDPTDHYHAQPLEDNLFEWHFTVRGPPDSDFDGGVYHGRIVLPPEYPMKPPSIILLTANGRFEVGKKICLSISGHHPETWQPSWSIRTALLAIIGFMPTKGEGAIGSLDYTPEERRALAKKSQDFCCEGCGSAMKDVLLPLKSGSDSSQADQEAKELARQISFKAEVNSSGKTISESDLNHSFSLTDLQDDIPTTFQGATASTSYGLQNSSAASFHQPTQPVAKNTSMSPRQRRAQQQSQRRLSTSPDVIQGHQPRDNHTDHGGSAVLIVILTLALAALIFRRIYLANEYIFDFEL
Regarding B1, the binding entry in experiment [1] is listed as “binds”.

B2: c6orf120 (protein, UniProt Q7Z4R8 31-191)
chain: DEEEVPEEWVLLHVVQGQIGAGNYSYLRLNHEGKIVLRMRSLKGDADLYVSASSLHPSFDDYELQSATCGPDAVSIPAHFRRPVGIGVYGHPSHLESEFEMKVYYDGTVEQHPFGEAAYPADGADAGQKHAGAPEDASQEEESVLWTILISILKLVLEILF
As for B2, the binding result in experiment [2] and in experiment [3] was “binds” in each case.

B3: AUP1 (endogenous) (protein, UniProt Q9Y679 1-410)
chain: MELPSGPGPERLFDSHRLPGDCFLLLVLLLYAPVGFCLLVLRLFLGIHVFLVSCALPDSVLRRFVVRTMCAVLGLVARQEDSGLRDHSVRVLISNHVTPFDHNIVNLLTTCSTPLLNSPPSFVCWSRGFMEMNGRGELVESLKRFCASTRLPPTPLLLFPEEEATNGREGLLRFSSWPFSIQDVVQPLTLQVQRPLVSVTVSDASWVSELLWSLFVPFTVYQVRWLRPVHRQLGEANEEFALRVQQLVAKELGQTGTRLTPADKAEHMKRQRHPRLRPQSAQSSFPPSPGPSPDVQLATLAQRVKEVLPHVPLGVIQRDLAKTGCVDLTITNLLEGAVAFMPEDITKGTQSLPTASASKFPSSGPVTPQPTALTFAKSSWARQESLQERKQALYEYARRRFTERRAQEAD
Consider B3, for which the binding entry in experiment [4] is “binds”.

B4: FAF2/UBXD8 (endogenous) (protein, UniProt Q96CS3 1-445)
chain: MAAPEERDLTQEQTEKLLQFQDLTGIESMDQCRHTLEQHNWNIEAAVQDRLNEQEGVPSVFNPPPSRPLQVNTADHRIYSYVVSRPQPRGLLGWGYYLIMLPFRFTYYTILDIFRFALRFIRPDPRSRVTDPVGDIVSFMHSFEEKYGRAHPVFYQGTYSQALNDAKRELRFLLVYLHGDDHQDSDEFCRNTLCAPEVISLINTRMLFWACSTNKPEGYRVSQALRENTYPFLAMIMLKDRRMTVVGRLEGLIQPDDLINQLTFIMDANQTYLVSERLEREERNQTQVLRQQQDEAYLASLRADQEKERKKREERERKRRKEEEVQQQKLAEERRRQNLQEEKERKLECLPPEPSPDDPESVKIIFKLPNDSRVERRFHFSQSLTVIHDFLFSLKESPEKFQIEANFPRRVLPCIPSEEWPNPPTLQEAGLSHTEVLFVQDLTDE
As for B4, the binding result in experiment [4] and in experiment [5] was “binds” each time.

B5: Herp, Q15011 1-391 (protein)
chain: MESETEPEPVTLLVKSPNQRHRDLELSGDRGWSVGHLKAHLSRVYPERPRPEDQRLIYSGKLLLDHQCLRDLLPKQEKRHVLHLVCNVKSPSKMPEINAKVAESTEEPAGSNRGQYPEDSSSDGLRQREVLRNLSSPGWENISRPEAAQQAFQGLGPGFSGYTPYGWLQLSWFQQIYARQYYMQYLAATAASGAFVPPPSAQEIPVVSAPAPAPIHNQFPAENQPANQNAAPQVVVNPGANQNLRMNAQGGPIVEEDDEINRDWLDWTYSAATFSVFLSILYFYSSLSRFLMVMGATVVMYLHHVGWFPFRPRPVQNFPNDGPPPDVVNQDPNNNLQEGTDPETEDPNHLPPDRDVLDGEQTSPSFMSTAWLVFKTFFASLLPEGPPAIAN
Consider B5, for which the binding result in experiment [1] was “binds”.

B6: TMEM43/LUMA (endogenous) (protein, UniProt Q9BTV4 1-400)
chain: MAANYSSTSTRREHVKVKTSSQPGFLERLSETSGGMFVGLMAFLLSFYLIFTNEGRALKTATSLAEGLSLVVSPDSIHSVAPENEGRLVHIIGALRTSKLLSDPNYGVHLPAVKLRRHVEMYQWVETEESREYTEDGQVKKETRYSYNTEWRSEIINSKNFDREIGHKNPSAMAVESFMATAPFVQIGRFFLSSGLIDKVDNFKSLSLSKLEDPHVDIIRRGDFFYHSENPKYPEVGDLRVSFSYAGLSGDDPDLGPAHVVTVIARQRGDQLVPFSTKSGDTLLLLHHGDFSAEEVFHRELRSNSMKTWGLRAAGWMAMFMGLNLMTRILYTLVDWFPVFRDLVNIGLKAFAFCVATSLTLLTVAAGWLFYRPLWALLIAGLALVPILVARTRVPAKKLE
As for B6, the binding entry in experiment [6] and in experiment [4] was “binds” throughout.

B7: ERLIN1 (protein, UniProt O75477 1-348)
chain: MNMTQARVLVAAVVGLVAVLLYASIHKIEEGHLAVYYRGGALLTSPSGPGYHIMLPFITTFRSVQTTLQTDEVKNVPCGTSGGVMIYIDRIEVVNMLAPYAVFDIVRNYTADYDKTLIFNKIHHELNQFCSAHTLQEVYIELFDQIDENLKQALQKDLNLMAPGLTIQAVRVTKPKIPEAIRRNFELMEAEKTKLLIAAQKQKVVEKEAETERKKAVIEAEKIAQVAKIRFQQKVMEKETEKRISEIEDAAFLAREKAKADAEYYAAHKYATSNKHKLTPEYLELKKYQAIASNSKIYFGSNIPNMFVDSSCALKYSDIRTGRESSLPSKEALEPSGENVIQNKESTG
On to B7, for which the binding result in experiment [2], in experiment [3], in experiment [7] and in experiment [5] was “binds” in each case.

B8: Evi/WLS/GPR177 (protein, UniProt Q5T9L3 1-541)
chain: MAGAIIENMSTKKLCIVGGILLVFQIIAFLVGGLIAPGPTTAVSYMSVKCVDARKNHHKTKWFVPWGPNHCDKIRDIEEAIPREIEANDIVFSVHIPLPHMEMSPWFQFMLFILQLDIAFKLNNQIRENAEVSMDVSLAYRDDAFAEWTEMAHERVPRKLKCTFTSPKTPEHEGRYYECDVLPFMEIGSVAHKFYLLNIRLPVNEKKKINVGIGEIKDIRLVGIHQNGGFTKVWFAMKTFLTPSIFIIMVWYWRRITMMSRPPVLLEKVIFALGISMTFINIPVEWFSIGFDWTWMLLFGDIRQGIFYAMLLSFWIIFCGEHMMDQHERNHIAGYWKQVGPIAVGSFCLFIFDMCERGVQLTNPFYSIWTTDIGTELAMAFIIVAGICLCLYFLFLCFMVFQVFRNISGKQSSLPAMSKVRRLHYEGLIFRFKFLMLITLACAAMTVIFFIVSQVTEGHWKWGGVTVQVNSAFFTGIYGMWNLYVFALMFLYAPSHKNYGEDQSNGDLGVHSGEELQLTTTITHVDGPTEIYKLTRKEAQE
In the case of B8, the binding result in experiment [8] is given as “binds”.
